This is one part of the list.
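Note: competitive profiling in live THP-1 cells: cysteine peptides tagged with an iodoacetamide desthiobiotin (IA-DTB) probe, intensity after compound treatment relative to DMSO-treated cells.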

By UniProt entry, the sequences of proteins in these tests, tags left out. Where a name states a change or a piece, a line headed by the entry shows the natural chain unless it says otherwise.
UniProt Q8N4C6: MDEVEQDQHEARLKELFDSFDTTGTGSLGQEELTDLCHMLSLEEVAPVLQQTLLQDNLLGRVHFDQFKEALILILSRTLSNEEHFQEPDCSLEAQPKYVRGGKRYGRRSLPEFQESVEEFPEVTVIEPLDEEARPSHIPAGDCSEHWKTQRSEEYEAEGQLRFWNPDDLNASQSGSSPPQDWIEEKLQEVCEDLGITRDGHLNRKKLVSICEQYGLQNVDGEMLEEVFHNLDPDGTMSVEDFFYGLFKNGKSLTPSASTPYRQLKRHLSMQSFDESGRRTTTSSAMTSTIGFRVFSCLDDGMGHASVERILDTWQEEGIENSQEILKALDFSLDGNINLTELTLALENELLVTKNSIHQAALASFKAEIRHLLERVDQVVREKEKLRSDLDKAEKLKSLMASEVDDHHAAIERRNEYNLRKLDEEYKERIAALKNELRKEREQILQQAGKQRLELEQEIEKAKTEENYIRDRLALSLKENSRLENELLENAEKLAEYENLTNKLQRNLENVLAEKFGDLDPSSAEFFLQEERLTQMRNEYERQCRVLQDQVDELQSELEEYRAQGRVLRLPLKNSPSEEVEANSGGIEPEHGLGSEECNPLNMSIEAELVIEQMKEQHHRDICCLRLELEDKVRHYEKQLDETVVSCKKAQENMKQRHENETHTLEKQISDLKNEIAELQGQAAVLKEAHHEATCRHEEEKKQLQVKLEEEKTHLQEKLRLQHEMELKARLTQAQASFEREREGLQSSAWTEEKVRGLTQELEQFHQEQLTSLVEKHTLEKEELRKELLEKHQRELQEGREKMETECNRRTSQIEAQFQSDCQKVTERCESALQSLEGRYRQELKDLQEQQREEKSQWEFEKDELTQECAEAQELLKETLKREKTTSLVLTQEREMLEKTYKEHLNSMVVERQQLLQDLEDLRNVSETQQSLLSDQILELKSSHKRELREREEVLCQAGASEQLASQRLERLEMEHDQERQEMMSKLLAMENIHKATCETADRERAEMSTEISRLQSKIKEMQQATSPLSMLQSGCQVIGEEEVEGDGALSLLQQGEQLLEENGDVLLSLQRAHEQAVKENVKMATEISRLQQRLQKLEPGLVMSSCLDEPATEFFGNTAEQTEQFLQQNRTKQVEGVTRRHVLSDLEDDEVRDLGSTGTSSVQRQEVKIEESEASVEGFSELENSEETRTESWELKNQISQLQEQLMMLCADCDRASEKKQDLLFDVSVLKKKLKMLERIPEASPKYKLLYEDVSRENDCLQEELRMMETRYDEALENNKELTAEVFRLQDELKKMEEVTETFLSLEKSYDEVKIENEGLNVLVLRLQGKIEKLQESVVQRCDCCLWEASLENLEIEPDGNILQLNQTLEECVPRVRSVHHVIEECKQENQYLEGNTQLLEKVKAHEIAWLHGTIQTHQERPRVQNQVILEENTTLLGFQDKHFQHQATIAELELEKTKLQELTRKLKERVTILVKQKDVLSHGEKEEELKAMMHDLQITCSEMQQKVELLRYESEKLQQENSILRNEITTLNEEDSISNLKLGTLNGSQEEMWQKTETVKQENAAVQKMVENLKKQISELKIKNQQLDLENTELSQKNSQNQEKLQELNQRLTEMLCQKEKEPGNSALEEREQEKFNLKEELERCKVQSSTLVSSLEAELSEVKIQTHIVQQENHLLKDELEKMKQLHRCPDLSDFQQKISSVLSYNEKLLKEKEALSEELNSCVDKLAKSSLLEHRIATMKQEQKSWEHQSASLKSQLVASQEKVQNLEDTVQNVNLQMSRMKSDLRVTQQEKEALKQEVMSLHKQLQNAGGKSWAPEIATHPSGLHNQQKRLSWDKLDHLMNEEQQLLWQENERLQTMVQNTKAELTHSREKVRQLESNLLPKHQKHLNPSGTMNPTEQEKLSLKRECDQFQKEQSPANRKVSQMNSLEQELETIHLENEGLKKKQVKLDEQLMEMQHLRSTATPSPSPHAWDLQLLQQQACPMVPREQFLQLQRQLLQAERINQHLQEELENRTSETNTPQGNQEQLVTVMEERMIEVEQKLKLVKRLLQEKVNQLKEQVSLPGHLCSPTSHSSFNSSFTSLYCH
UniProt P08651, whole entry, looked up: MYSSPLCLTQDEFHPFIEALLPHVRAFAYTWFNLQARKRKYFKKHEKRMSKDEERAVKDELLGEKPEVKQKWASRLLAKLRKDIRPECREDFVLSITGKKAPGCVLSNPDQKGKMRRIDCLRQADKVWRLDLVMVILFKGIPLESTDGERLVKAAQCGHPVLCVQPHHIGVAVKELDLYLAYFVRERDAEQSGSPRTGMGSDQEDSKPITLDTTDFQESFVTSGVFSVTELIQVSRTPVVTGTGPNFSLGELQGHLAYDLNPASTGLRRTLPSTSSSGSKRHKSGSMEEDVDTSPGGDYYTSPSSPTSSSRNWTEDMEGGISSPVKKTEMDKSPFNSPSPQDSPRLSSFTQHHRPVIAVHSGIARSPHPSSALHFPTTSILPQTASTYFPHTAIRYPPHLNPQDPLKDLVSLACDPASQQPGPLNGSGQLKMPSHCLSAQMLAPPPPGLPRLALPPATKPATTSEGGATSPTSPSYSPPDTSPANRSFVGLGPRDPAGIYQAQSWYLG
UniProt Q8NCF5: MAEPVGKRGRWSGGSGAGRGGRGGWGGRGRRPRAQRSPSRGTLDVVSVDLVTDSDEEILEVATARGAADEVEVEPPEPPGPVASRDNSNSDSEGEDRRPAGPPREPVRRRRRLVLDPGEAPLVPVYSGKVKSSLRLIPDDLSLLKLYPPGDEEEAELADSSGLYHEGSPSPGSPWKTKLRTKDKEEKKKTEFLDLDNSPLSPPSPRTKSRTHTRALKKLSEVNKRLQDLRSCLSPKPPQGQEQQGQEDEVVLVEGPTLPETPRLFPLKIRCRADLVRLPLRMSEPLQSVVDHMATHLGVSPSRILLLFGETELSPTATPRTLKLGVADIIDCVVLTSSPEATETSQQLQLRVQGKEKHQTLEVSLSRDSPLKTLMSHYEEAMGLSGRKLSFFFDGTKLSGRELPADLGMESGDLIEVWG
UniProt Q9Y697: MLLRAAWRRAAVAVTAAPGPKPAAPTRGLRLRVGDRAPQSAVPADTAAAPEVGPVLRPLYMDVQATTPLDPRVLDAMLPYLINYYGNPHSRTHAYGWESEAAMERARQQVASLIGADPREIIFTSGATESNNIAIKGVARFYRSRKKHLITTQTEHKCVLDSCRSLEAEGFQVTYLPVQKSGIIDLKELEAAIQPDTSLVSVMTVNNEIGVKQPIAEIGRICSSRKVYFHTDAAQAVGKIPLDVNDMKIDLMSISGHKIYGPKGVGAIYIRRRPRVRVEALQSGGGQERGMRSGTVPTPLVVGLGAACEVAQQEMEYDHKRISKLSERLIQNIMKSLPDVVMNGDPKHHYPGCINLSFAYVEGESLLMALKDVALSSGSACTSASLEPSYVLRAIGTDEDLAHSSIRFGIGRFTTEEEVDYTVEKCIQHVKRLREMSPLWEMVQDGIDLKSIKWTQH
UniProt Q9UFN0: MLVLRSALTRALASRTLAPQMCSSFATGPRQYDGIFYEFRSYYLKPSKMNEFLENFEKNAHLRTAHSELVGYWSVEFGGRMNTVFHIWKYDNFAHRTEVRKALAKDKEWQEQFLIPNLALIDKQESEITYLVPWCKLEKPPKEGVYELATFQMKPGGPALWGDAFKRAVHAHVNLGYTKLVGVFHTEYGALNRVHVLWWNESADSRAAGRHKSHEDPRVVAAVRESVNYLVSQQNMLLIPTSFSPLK
UniProt Q9H3P2, whole entry, looked up: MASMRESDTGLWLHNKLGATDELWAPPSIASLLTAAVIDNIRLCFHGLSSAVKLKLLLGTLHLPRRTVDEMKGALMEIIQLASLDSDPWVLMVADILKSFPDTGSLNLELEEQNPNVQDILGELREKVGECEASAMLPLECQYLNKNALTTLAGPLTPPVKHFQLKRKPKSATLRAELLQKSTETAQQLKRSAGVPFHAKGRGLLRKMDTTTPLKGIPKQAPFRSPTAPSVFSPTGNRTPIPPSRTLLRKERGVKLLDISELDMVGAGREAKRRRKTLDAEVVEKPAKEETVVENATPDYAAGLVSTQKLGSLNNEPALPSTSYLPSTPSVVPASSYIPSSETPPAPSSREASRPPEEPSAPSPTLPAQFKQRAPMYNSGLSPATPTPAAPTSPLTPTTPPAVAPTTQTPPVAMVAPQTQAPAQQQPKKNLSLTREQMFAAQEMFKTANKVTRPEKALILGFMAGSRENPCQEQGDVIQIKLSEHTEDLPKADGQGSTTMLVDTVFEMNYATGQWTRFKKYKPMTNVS
UniProt P51970, whole entry, looked up: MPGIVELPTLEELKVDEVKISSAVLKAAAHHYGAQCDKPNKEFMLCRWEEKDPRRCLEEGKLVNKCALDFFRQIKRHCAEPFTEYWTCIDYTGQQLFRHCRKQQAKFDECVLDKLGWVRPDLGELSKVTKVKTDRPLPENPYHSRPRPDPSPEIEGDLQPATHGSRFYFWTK
UniProt P46934: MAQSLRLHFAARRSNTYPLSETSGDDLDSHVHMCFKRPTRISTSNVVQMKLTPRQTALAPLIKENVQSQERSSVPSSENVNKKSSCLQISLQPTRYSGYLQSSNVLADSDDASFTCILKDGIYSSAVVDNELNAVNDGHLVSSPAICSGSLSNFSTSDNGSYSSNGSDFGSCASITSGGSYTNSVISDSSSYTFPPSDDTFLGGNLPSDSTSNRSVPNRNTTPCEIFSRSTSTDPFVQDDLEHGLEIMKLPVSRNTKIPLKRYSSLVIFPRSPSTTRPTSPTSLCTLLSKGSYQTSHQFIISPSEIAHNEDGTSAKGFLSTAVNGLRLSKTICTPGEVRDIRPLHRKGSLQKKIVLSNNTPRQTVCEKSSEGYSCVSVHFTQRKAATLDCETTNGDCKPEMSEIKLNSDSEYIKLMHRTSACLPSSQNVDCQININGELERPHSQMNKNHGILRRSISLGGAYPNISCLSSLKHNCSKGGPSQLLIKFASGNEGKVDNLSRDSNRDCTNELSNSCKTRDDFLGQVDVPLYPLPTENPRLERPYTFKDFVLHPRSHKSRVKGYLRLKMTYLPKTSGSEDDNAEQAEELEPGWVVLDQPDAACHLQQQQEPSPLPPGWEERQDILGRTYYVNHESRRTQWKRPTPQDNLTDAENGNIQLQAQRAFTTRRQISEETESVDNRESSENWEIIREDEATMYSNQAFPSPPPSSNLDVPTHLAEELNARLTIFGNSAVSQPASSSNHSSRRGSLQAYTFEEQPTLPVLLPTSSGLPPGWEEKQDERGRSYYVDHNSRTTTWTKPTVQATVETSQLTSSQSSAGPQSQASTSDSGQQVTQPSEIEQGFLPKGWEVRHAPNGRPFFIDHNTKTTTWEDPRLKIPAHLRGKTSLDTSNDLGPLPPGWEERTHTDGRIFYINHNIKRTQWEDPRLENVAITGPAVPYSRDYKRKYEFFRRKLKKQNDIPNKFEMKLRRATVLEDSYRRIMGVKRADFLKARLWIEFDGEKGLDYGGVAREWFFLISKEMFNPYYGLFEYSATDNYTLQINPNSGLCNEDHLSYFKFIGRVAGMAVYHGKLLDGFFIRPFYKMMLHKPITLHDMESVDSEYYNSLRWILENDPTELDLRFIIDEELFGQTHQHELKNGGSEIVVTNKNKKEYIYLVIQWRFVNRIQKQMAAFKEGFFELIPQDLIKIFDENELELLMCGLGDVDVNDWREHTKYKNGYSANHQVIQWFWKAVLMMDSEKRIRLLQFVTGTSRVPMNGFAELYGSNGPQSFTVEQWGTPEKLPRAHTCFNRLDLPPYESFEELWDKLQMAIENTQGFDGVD
UniProt Q9NX24: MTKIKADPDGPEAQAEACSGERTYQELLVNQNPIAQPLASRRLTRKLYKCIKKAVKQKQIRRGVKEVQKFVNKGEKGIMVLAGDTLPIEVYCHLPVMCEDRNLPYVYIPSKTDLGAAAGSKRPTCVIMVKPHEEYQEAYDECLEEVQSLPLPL
UniProt P17568, whole entry, looked up: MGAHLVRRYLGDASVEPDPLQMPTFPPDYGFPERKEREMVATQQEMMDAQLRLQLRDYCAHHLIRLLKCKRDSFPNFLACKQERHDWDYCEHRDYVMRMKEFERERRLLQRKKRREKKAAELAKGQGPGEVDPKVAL
UniProt Q9UN36: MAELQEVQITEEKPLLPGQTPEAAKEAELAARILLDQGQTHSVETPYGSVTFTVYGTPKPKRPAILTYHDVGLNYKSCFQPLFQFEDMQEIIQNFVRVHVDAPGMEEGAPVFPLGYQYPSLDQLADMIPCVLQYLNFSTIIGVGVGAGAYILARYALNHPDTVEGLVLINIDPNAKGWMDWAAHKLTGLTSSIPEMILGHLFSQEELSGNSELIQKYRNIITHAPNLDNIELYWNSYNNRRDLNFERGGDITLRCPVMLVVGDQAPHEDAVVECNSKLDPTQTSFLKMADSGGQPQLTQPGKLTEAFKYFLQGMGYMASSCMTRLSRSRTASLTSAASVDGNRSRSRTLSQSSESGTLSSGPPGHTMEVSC
UniProt Q9NYR9: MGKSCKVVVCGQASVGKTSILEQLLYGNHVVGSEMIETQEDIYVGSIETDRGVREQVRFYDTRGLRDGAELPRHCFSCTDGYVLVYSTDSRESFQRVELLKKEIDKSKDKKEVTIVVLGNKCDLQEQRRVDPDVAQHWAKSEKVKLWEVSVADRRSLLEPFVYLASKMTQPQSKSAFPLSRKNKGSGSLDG

Compound in the assay: Cc1cc(ccc1-c1ccccc1)C(=O)N1CCCN(CC1)C(=O)CCl [compound 10]
The assay can be described thus: probe-labelled cysteine peptide fold change vs DMSO (competition) (log2 fold change); higher = less target engagement (more negative = stronger competition). The note with it: 10 µM; THP-1; incubation time: 4 h.
Consider “NIN_Q8N4C6_1502_AMMHDLQITCSEMQQK (UniProt Q8N4C6)”, for which the “probe-labelled cysteine peptide fold change” value was -0.00943. As to “NFIC_P08651_157_AAQCGHPVLCVQPHHIGVAVK (UniProt P08651)”, the “probe-labelled cysteine peptide fold change” value was -0.126. Then “NFATC2_Q13469_355_HIYPAVEFLGPCEQGER (UniProt Q13469)”, with -0.364; and “NDUFA10_O95299_253_CEVLQYSAR (UniProt O95299)”, with -0.141; and “NDUFS1_P28331_564_DCFIIYQGHHGDVGAPIADVILPGAAYTEK (UniProt P28331)”, with 0.0878. Take NIT1_Q86X76_67_TCAELVR (UniProt Q86X76): the “probe-labelled cysteine peptide fold change” value came to 0.0195.

For “NIPBL_Q6KC79_1841_FVLCRPQLAEQYYDMLIER (UniProt Q6KC79)”, the “probe-labelled cysteine peptide fold change” value was -0.0227. As for “NEU1_Q99519_230_DGVFCLLSDDHGASWR (UniProt Q99519)”, the “probe-labelled cysteine peptide fold change” value was found to be 0.14. As for “NCKAP1L_P55160_612_QTSNCVLEICAEQR (UniProt P55160)”, the “probe-labelled cysteine peptide fold change” value stood at 0.115.

Consider “NCKIPSD_Q9NZQ3_429_CYLEELLHILTDADPEVCKK (UniProt Q9NZQ3)”, for which the “probe-labelled cysteine peptide fold change” value is -0.207. “NDUFV1_P49821_286_LFNISGHVNHPCTVEEEMSVPLK (UniProt P49821)”: the “probe-labelled cysteine peptide fold change” value is -0.0494. As to “NDRG3_Q9UGV2_166_FALNHPELVEGLVLINVDPCAK (UniProt Q9UGV2)”, the “probe-labelled cysteine peptide fold change” value was -0.162.

“NFATC2IP_Q8NCF5_332_LGVADIIDCVVLTSSPEATETSQQLQLR (UniProt Q8NCF5)”: the “probe-labelled cysteine peptide fold change” value came out at 0.0383. For the target “NFIC_P08651_157+163_AAQCGHPVLCVQPHHIGVAVK (UniProt P08651)”, the “probe-labelled cysteine peptide fold change” value is -0.172. In the case of “NDUFS1_P28331_367_VDSDTLCTEEVFPTAGAGTDLR (UniProt P28331)”, the “probe-labelled cysteine peptide fold change” value is -0.274. As for “NCKIPSD_Q9NZQ3_376_DLSMALPSGQVCHDQQR (UniProt Q9NZQ3)”, the “probe-labelled cysteine peptide fold change” value came out at 0.189. With “NFS1_Q9Y697_308_SGTVPTPLVVGLGAACEVAQQEMEYDHKR (UniProt Q9Y697)”, the “probe-labelled cysteine peptide fold change” value was -0.235. In the case of “NGLY1_Q96IV0_283+286_EVEDHYCDACQFSNRFPR (UniProt Q96IV0)”, the “probe-labelled cysteine peptide fold change” value is -0.135. Regarding “NKRF_O15226_424_SSQCHTGSSPR (UniProt O15226)”, the “probe-labelled cysteine peptide fold change” value is 0.0137. Then “NIPSNAP3A_Q9UFN0_135_QESEITYLVPWCK (UniProt Q9UFN0)”, with 0.151; and “NIFK_Q9BYG3_118_LLECHFMPPEK (UniProt Q9BYG3)”, with -0.0155.

As for “NELFA_Q9H3P2_44_LCFHGLSSAVK (UniProt Q9H3P2)”, the “probe-labelled cysteine peptide fold change” value was -0.136.

Take “NFXL1_Q6ZNB6_371_TLPCGNHTCEQVCHVGACGECPR (UniProt Q6ZNB6)”: the “probe-labelled cysteine peptide fold change” value stood at 0.173. With “NEK4_P51957-2_463_DQDQVAGECIIEK (UniProt P51957)”, the “probe-labelled cysteine peptide fold change” value was -0.194.

With “NDUFA8_P51970_36_AAAHHYGAQCDK (UniProt P51970)”, the “probe-labelled cysteine peptide fold change” value is -0.0974. Turning to NFIB_O00712_120_RIDCLR (UniProt O00712), the “probe-labelled cysteine peptide fold change” value is -0.191.

As to “NFX1_Q12986_684_SEDATFMCDK (UniProt Q12986)”, the “probe-labelled cysteine peptide fold change” value came out at 0.0195.

With “NEDD4_P46934_1197_IFDENELELLMCGLGDVDVNDWREHTK (UniProt P46934)”, the “probe-labelled cysteine peptide fold change” value is -0.146. Then “NHP2_Q9NX24_18_IKADPDGPEAQAEACSGER (UniProt Q9NX24)”, with -0.258. As to “NDUFB7_P17568_80_DSFPNFLACK (UniProt P17568)”, the “probe-labelled cysteine peptide fold change” value was -0.134. In the case of “NDRG2_Q9UN36_255_CPVMLVVGDQAPHEDAVVECNSK (UniProt Q9UN36)”, the “probe-labelled cysteine peptide fold change” value was 0.151. Consider “NDUFV1_P49821_238_LKPPFPADVGVFGCPTTVANVETVAVSPTICR (UniProt P49821)”, for which the “probe-labelled cysteine peptide fold change” value was -0.133. Take “NCOA5_Q9HCD5_301_YKNECR (UniProt Q9HCD5)”: the “probe-labelled cysteine peptide fold change” value turned out to be 0.0517. As to “NIN_Q8N4C6_695_EAHHEATCR (UniProt Q8N4C6)”, the “probe-labelled cysteine peptide fold change” value stood at 0.152.

On to “NKIRAS2_Q9NYR9_10_VVVCGQASVGK (UniProt Q9NYR9)”, for which the “probe-labelled cysteine peptide fold change” value is -0.00923. Take “NELFB_Q8WX92_235_NVHYCTLR (UniProt Q8WX92)”: the “probe-labelled cysteine peptide fold change” value turned out to be 0.00574. Then “NDUFV1_P49821_238+255_LKPPFPADVGVFGCPTTVANVETVAVSPTICR (UniProt P49821)”, with -0.0101. Turning to “NCKIPSD_Q9NZQ3_700_ILNEEETSPQCQMDR (UniProt Q9NZQ3)”, the “probe-labelled cysteine peptide fold change” value came out at 0.0808.

The values are drawn from the supplement of paper PMC12067093, “Discovery and optimisation of a covalent ligand for TRIM25 and its application to targeted protein ubiquitination” (Chemical Science, 2025).
